Values quoted from earlier work as cited in patent publication US8200312B2, “Apparatus for monitoring a system pressure in space with time and method for assessing drug delivery and resistance to therapy and product” (Yeda Research and Development Co. Ltd., priority 2006, dated 2012).
At least one structure is not confirmed: it was looked up by name or label, or the drawing left a doubt.

Settings: cited from earlier work

In the case of O=C([O-])CN(CCN(CC(=O)[O-])CC(=O)O)CCN(CC(=O)[O-])CC(=O)O.[Gd+3] [GdDTPA, gadolinium-diethylenetriaminepentaacetic acid], the “r1, water relaxivity of GdDTPA in solution” value is listed as 4.2 s^−1×(mmol/L)^−1.
